# Data from paper PMC3906104.
# Protein sequences, listed by entry. Tags and fused reporters are not part of them. Lines headed by an entry give the natural chain unless they say otherwise; changes in a name come on top. Chains listed by the source or under a name are the forms on record and can include a tag or linker.
# UniProt P61073: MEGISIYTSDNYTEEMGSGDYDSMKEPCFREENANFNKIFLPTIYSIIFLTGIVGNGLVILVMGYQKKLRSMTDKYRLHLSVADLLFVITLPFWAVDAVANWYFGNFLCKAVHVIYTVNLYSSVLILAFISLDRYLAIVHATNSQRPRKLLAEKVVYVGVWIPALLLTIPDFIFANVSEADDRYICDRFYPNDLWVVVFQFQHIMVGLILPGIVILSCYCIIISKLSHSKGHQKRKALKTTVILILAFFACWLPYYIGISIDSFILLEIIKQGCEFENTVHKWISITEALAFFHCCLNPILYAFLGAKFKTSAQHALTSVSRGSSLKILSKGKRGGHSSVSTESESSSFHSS
# FLAG-tagged Q297A/N329A AIP4 mutant (Q96J02-2, form named): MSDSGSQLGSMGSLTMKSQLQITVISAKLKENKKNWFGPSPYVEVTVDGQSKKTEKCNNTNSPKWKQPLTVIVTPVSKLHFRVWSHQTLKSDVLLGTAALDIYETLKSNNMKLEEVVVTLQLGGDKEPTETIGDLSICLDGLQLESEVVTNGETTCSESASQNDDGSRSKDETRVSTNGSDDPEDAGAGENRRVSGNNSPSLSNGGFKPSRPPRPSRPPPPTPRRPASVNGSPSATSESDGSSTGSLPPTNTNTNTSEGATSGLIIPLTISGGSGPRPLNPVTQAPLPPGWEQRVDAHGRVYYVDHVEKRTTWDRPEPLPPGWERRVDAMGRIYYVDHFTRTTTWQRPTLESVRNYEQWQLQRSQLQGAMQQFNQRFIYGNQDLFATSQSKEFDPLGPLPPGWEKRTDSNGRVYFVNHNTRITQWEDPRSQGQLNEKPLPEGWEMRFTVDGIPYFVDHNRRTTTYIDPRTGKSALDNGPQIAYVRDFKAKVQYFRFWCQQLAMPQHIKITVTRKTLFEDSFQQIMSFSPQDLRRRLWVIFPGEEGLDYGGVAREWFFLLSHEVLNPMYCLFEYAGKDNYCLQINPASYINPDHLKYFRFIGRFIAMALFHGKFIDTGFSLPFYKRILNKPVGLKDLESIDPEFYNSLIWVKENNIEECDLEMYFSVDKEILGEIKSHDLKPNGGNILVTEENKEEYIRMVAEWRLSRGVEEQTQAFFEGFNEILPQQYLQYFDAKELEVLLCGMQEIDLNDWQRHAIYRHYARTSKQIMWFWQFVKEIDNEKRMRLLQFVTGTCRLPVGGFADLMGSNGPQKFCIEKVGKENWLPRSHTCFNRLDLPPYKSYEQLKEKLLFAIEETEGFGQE
# FLAG-tagged wt AIP4 (Atropin Interacting Protein 4) (Q96J02-2, form named): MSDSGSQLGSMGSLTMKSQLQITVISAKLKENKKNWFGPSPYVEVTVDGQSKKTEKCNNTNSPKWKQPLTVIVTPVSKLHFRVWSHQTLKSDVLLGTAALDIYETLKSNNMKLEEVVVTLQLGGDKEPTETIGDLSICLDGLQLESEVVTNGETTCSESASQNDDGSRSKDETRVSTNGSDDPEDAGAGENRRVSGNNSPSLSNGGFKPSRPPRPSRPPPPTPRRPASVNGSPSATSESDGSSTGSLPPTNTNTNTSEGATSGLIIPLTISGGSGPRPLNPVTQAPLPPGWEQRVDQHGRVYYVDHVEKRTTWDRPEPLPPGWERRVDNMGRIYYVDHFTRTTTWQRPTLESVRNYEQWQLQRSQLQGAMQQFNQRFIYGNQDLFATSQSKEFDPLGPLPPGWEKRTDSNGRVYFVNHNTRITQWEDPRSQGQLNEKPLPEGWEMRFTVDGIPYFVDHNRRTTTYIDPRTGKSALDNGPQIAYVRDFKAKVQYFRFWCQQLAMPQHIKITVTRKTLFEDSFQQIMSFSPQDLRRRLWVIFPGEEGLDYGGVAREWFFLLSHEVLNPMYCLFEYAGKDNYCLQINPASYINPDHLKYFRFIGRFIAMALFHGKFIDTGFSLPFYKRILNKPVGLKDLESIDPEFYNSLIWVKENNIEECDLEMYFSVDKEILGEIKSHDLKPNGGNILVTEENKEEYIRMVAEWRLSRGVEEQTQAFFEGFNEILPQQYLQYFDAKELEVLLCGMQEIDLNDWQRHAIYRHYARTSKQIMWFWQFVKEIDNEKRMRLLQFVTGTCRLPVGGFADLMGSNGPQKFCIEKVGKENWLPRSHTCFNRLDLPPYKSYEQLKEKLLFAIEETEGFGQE
# Results are given in words; binding and its absence hold for the method and conditions named. In cells and extracts the contact can be indirect. Some binding calls cover weakened binding; strength is not graded here.
# Target: 6-His tagged CXCR4 (human) (UniProt P61073)
# Test: pull-down; 6-His tagged CXCR4 recovered on Ni-NTA agarose (6 hours at 4°C) from lysates of Jurkat cells co-transfected with CXCR4-His, GFP, FLAG-wt or mutant AIP4 and Nef or a null plasmid; lysis buffer 20 mM Tris pH 8.0, 150 mM NaCl, 1% Triton X-100; co-precipitated AIP4 detected by blot with anti-FLAG M2; no agonist; the paper calls it a co-precipitation assay
substance,measurement,value
FLAG-tagged Q297A/N329A AIP4 mutant (from UniProt Q96J02-2 1-862) (enzyme),binding,no binding
FLAG-tagged wt AIP4 (Atropin Interacting Protein 4) (from UniProt Q96J02-2 1-862) (enzyme),binding,binds
